Experimental data from paper PMC6550519, “Regulatory Mechanism of Nicotine Degradation in Pseudomonas putida” (mBio, 2019).

System: NicR2 (Pseudomonas putida S16)
Experiment: ITC
Conditions: ITC: PBS, 64 uM NicR2 in cell, 100 uM DNA titrant; temperature not given; recombinant protein

Sequence	binding result
CACTAATTATACCGTCGTACATAGCATAAA (double strand) [R-m23 30 bp]	no binding
CACTAATTATACCGTCGTACATCGAATAAA (double strand) [R-m34 30 bp]	no binding

The exact form of at least one protein or probe is not confirmed. Negatives hold for the conditions tested.
